# Assay results as given in US6872750B2, “Modulating angiogenesis” (Regents of the University of California, priority 2000, dated 2005).
# At least one compound was matched to its structure with a doubt left.
# Test system: Kuz
# Assay: Inhibition of angiogenesis by Kuz inhibitors in several model systems
# Procedure: The presence of Kuz and its activity is assayed by ELISA and Kuz-specific protease activity prior to or subsequent to the measure of angiogenesis.
smiles,measurement,value
"CNC(=O)[C@H](Cc1ccccc1)NC(=O)[C@H](CC(C)C)[C@H](CSc1cccs1)C(=O)NO [BB-94, batimastat]",inhibition of angiogenesis,inhibit angiogenesis
